# Measured values taken from the supplement of paper PMC5355238.
# Structures can show the parent of a compound that is named as a salt. This is one part of the list. Most values lie at the level of the controls, where differences are scatter.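 Using flow cytometry, the assay measures the median γH2AX antibody signal in S-phase Reh cells (a human leukemia line). Each score is the number of standard deviations from the median difference of paired plate sets. Candidate hits scored above 2.5; compounds scoring below -2 lowered MK1775-induced damage.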
# Tested on: Reh
# Experiment: Z' of S-phase gammaH2AX difference (drug + MK1775 minus drug alone) (Z-score); higher = stronger synergistic S-phase DNA damage with MK1775
# Conditions: MK1775 concentration 400 nM; first compound 10 µM; 4 h
row,Compound,Z' of S-phase gammaH2AX difference (Z-score)
1,COc1ccccc1N1CCN(CCCNc2cc(=O)n(C)c(=O)n2C)CC1 [Urapidil hydrochloride] + C=CCn1c(=O)c2cnc(Nc3ccc(N4CCN(C)CC4)cc3)nc2n1-c1cccc(C(C)(C)O)n1 [MK1775],inactive: 0.722
2,O=C(CCCN1CCC(O)(c2cccc(C(F)(F)F)c2)CC1)c1ccc(F)cc1 [Trifluperidol hydrochloride] + C=CCn1c(=O)c2cnc(Nc3ccc(N4CCN(C)CC4)cc3)nc2n1-c1cccc(C(C)(C)O)n1 [MK1775],inactive: -0.49
3,O=c1c2ccccc2nc2n1CCc1c-2[nH]c2ccccc12 [Rutaecarpine] + C=CCn1c(=O)c2cnc(Nc3ccc(N4CCN(C)CC4)cc3)nc2n1-c1cccc(C(C)(C)O)n1 [MK1775],inactive: -0.281
4,OC[C@H]1O[C@@H](n2cnc3c2N=CNC[C@H]3O)C[C@@H]1O [Pentostatin] + C=CCn1c(=O)c2cnc(Nc3ccc(N4CCN(C)CC4)cc3)nc2n1-c1cccc(C(C)(C)O)n1 [MK1775],inactive: 0.363
5,CN(C)c1ccccc1CN1CCCN(Cc2ccccc2N(C)C)C1c1ccncc1 + C=CCn1c(=O)c2cnc(Nc3ccc(N4CCN(C)CC4)cc3)nc2n1-c1cccc(C(C)(C)O)n1 [MK1775],inactive: 0.388
6,Oc1cc2c(c(Cl)c1O)CCNCC2c1ccccc1 (stereo not given) [(?)-6-Chloro-PB hydrobromide] + C=CCn1c(=O)c2cnc(Nc3ccc(N4CCN(C)CC4)cc3)nc2n1-c1cccc(C(C)(C)O)n1 [MK1775],inactive: -0.00932
7,COCC(=O)O[C@]1(CCN(C)CCCc2nc3ccccc3[nH]2)CCc2cc(F)ccc2[C@@H]1C(C)C [Mibefradil dihydrochloride] + C=CCn1c(=O)c2cnc(Nc3ccc(N4CCN(C)CC4)cc3)nc2n1-c1cccc(C(C)(C)O)n1 [MK1775],inactive: -0.718
8,O=C(O)CCCCC1CCSS1 (stereo not drawn) [(?)-alpha-Lipoic Acid] + C=CCn1c(=O)c2cnc(Nc3ccc(N4CCN(C)CC4)cc3)nc2n1-c1cccc(C(C)(C)O)n1 [MK1775],inactive: 0.0988
9,CCCCCCCCCCCCCCCCCC(=O)NCC(COP(=O)([O-])OCC[N+](C)(C)C)OCC (racemic) [rac-2-Ethoxy-3-octadecanamido-1-propylphosphocholine] + C=CCn1c(=O)c2cnc(Nc3ccc(N4CCN(C)CC4)cc3)nc2n1-c1cccc(C(C)(C)O)n1 [MK1775],inactive: -0.163
10,C=CCn1c(=O)c2cnc(Nc3ccc(N4CCN(C)CC4)cc3)nc2n1-c1cccc(C(C)(C)O)n1 + C=CCn1c(=O)c2cnc(Nc3ccc(N4CCN(C)CC4)cc3)nc2n1-c1cccc(C(C)(C)O)n1 [MK1775],inactive: 0.394
11,CC(=O)OCC1=C(C(=O)O)N2C(=O)[C@@H](NC(=O)Cc3cccs3)[C@H]2SC1 [Cephalothin sodium] + C=CCn1c(=O)c2cnc(Nc3ccc(N4CCN(C)CC4)cc3)nc2n1-c1cccc(C(C)(C)O)n1 [MK1775],inactive: -0.351
12,O=C1CCC(N2C(=O)c3ccccc3C2=O)C(=O)N1 (stereo not given) [(?)-Thalidomide] + C=CCn1c(=O)c2cnc(Nc3ccc(N4CCN(C)CC4)cc3)nc2n1-c1cccc(C(C)(C)O)n1 [MK1775],inactive: -0.591
13,CNCCCN1c2ccccc2CCc2ccccc21 [Desipramine hydrochloride] + C=CCn1c(=O)c2cnc(Nc3ccc(N4CCN(C)CC4)cc3)nc2n1-c1cccc(C(C)(C)O)n1 [MK1775],inactive: 0.245
14,CCC(C)n1ncn(-c2ccc(N3CCN(c4ccc(OCC5COC(Cn6cncn6)(c6ccc(Cl)cc6Cl)O5)cc4)CC3)cc2)c1=O (stereo not given) [Itraconazole (Sporanox)] + C=CCn1c(=O)c2cnc(Nc3ccc(N4CCN(C)CC4)cc3)nc2n1-c1cccc(C(C)(C)O)n1 [MK1775],inactive: -0.00665
15,CC(N)C(=O)OC(C)(C)Cc1ccc(Cl)cc1 (stereo not given) [Alaproclate hydrochloride] + C=CCn1c(=O)c2cnc(Nc3ccc(N4CCN(C)CC4)cc3)nc2n1-c1cccc(C(C)(C)O)n1 [MK1775],inactive: -0.14
16,CN(CCOc1ccc(C[C@H](Nc2ccccc2C(=O)c2ccccc2)C(=O)O)cc1)c1ccccn1 + C=CCn1c(=O)c2cnc(Nc3ccc(N4CCN(C)CC4)cc3)nc2n1-c1cccc(C(C)(C)O)n1 [MK1775],inactive: 2.29
17,COC(=O)C1=C(C)NC(C)=C(C(=O)OCCN(C)Cc2ccccc2)C1c1cccc([N+](=O)[O-])c1 (stereo not given) [Nicardipine hydrochloride] + C=CCn1c(=O)c2cnc(Nc3ccc(N4CCN(C)CC4)cc3)nc2n1-c1cccc(C(C)(C)O)n1 [MK1775],inactive: 1.64
18,Cc1ccccc1CNc1ncnc2c1ncn2[C@@H]1O[C@H](CO)[C@@H](O)[C@H]1O [Metrifudil] + C=CCn1c(=O)c2cnc(Nc3ccc(N4CCN(C)CC4)cc3)nc2n1-c1cccc(C(C)(C)O)n1 [MK1775],inactive: 1.8

row,Compound,Z' of S-phase gammaH2AX difference (Z-score)
1,COc1ccc(C2CC(c3ccccc3)=NN2c2ccc(S(N)(=O)=O)cc2)cc1 (stereo not given) + C=CCn1c(=O)c2cnc(Nc3ccc(N4CCN(C)CC4)cc3)nc2n1-c1cccc(C(C)(C)O)n1 [MK1775],inactive: -0.0569
2,CCCC(=O)[O-].[Na+] [Sodium butyrate] + C=CCn1c(=O)c2cnc(Nc3ccc(N4CCN(C)CC4)cc3)nc2n1-c1cccc(C(C)(C)O)n1 [MK1775],inactive: -0.39
3,Cc1cc(Nc2cc(N3CCN(C)CC3)nc(/C=C/c3ccccc3)n2)n[nH]1 + C=CCn1c(=O)c2cnc(Nc3ccc(N4CCN(C)CC4)cc3)nc2n1-c1cccc(C(C)(C)O)n1 [MK1775],inactive: -0.57
4,CC1(C)CNc2cc(NC(=O)c3cccnc3NCc3ccncc3)ccc21 [Motesanib Diphosphate] + C=CCn1c(=O)c2cnc(Nc3ccc(N4CCN(C)CC4)cc3)nc2n1-c1cccc(C(C)(C)O)n1 [MK1775],inactive: -0.617
5,"CC(C)NCC(O)c1ccc(O)c(O)c1 (single isomer, unassigned; (-)) [(-)-Isoproterenol hydrochloride] + C=CCn1c(=O)c2cnc(Nc3ccc(N4CCN(C)CC4)cc3)nc2n1-c1cccc(C(C)(C)O)n1 [MK1775]",inactive: 0.279
6,Cc1ccccc1C(OCCN(C)C)c1ccccc1 (stereo not given) [Orphenadrine hydrochloride] + C=CCn1c(=O)c2cnc(Nc3ccc(N4CCN(C)CC4)cc3)nc2n1-c1cccc(C(C)(C)O)n1 [MK1775],inactive: 1.03
7,N=C(N)NCCCCN [Agmatine sulfate] + C=CCn1c(=O)c2cnc(Nc3ccc(N4CCN(C)CC4)cc3)nc2n1-c1cccc(C(C)(C)O)n1 [MK1775],inactive: -0.571
8,CCc1cc(-c2n[nH]c(C)c2-c2ccc3c(c2)OCCO3)c(O)cc1O + C=CCn1c(=O)c2cnc(Nc3ccc(N4CCN(C)CC4)cc3)nc2n1-c1cccc(C(C)(C)O)n1 [MK1775],inactive: 0.178
9,COc1ncc(-c2ccc3nccc(-c4ccnnc4)c3c2)cc1NS(=O)(=O)c1ccc(F)cc1F + C=CCn1c(=O)c2cnc(Nc3ccc(N4CCN(C)CC4)cc3)nc2n1-c1cccc(C(C)(C)O)n1 [MK1775],inactive: -0.864
10,CCCCNc1ccc(C(=O)OCCN(C)C)cc1 [Tetracaine hydrochloride] + C=CCn1c(=O)c2cnc(Nc3ccc(N4CCN(C)CC4)cc3)nc2n1-c1cccc(C(C)(C)O)n1 [MK1775],inactive: -0.226
11,COc1ccc(NC(=O)c2ccc(-c3ccc(-c4noc(C)n4)cc3C)cc2)cc1N1CCN(C)CC1 + C=CCn1c(=O)c2cnc(Nc3ccc(N4CCN(C)CC4)cc3)nc2n1-c1cccc(C(C)(C)O)n1 [MK1775],inactive: 0.165
12,CCCCCOC(=O)Nc1nc(=O)n([C@@H]2O[C@H](C)[C@@H](O)[C@H]2O)cc1F [Capecitabine (Xeloda)] + C=CCn1c(=O)c2cnc(Nc3ccc(N4CCN(C)CC4)cc3)nc2n1-c1cccc(C(C)(C)O)n1 [MK1775],inactive: -0.15
13,COc1ccccc1N1CCN(CCCCNC(=O)c2ccc3ccccc3c2)CC1 + C=CCn1c(=O)c2cnc(Nc3ccc(N4CCN(C)CC4)cc3)nc2n1-c1cccc(C(C)(C)O)n1 [MK1775],inactive: 0.22
14,Cc1cnc(C(=O)NCCc2ccc(S(=O)(=O)NC(=O)NC3CCCCC3)cc2)cn1 [Glipizide] + C=CCn1c(=O)c2cnc(Nc3ccc(N4CCN(C)CC4)cc3)nc2n1-c1cccc(C(C)(C)O)n1 [MK1775],inactive: 0.0559
15,CC(C)NC[C@H](O)COc1cccc2[nH]ccc12 [S(-)-Pindolol] + C=CCn1c(=O)c2cnc(Nc3ccc(N4CCN(C)CC4)cc3)nc2n1-c1cccc(C(C)(C)O)n1 [MK1775],inactive: 0.0307
16,O=C1[C@H](CC[C@H](O)c2ccc(F)cc2)[C@@H](c2ccc(O)cc2)N1c1ccc(F)cc1 [Ezetimibe (Zetia)] + C=CCn1c(=O)c2cnc(Nc3ccc(N4CCN(C)CC4)cc3)nc2n1-c1cccc(C(C)(C)O)n1 [MK1775],inactive: -0.0776
17,Nc1nc2[nH]cc(CCc3ccc(C(=O)N[C@@H](CCC(=O)O)C(=O)O)cc3)c2c(=O)[nH]1 [Pemetrexed] + C=CCn1c(=O)c2cnc(Nc3ccc(N4CCN(C)CC4)cc3)nc2n1-c1cccc(C(C)(C)O)n1 [MK1775],inactive: 0.314

# Given with tabs: part of the list above.
row	Compound	Z' of S-phase gammaH2AX difference (Z-score)
7	N=C(N)NCCCCN [Agmatine sulfate] + C=CCn1c(=O)c2cnc(Nc3ccc(N4CCN(C)CC4)cc3)nc2n1-c1cccc(C(C)(C)O)n1 [MK1775]	inactive: -0.571
13	COc1ccccc1N1CCN(CCCCNC(=O)c2ccc3ccccc3c2)CC1 + C=CCn1c(=O)c2cnc(Nc3ccc(N4CCN(C)CC4)cc3)nc2n1-c1cccc(C(C)(C)O)n1 [MK1775]	inactive: 0.22
